These are yes or no findings as the source states them, for the method shown. In cells and extracts the contact can be indirect. These calls come from enrichment with a bait or labelling near it, and not all partners need be listed.
The substances below were run against Biotin-FOXC1 (mouse) (UniProt Q61572) (assay: affinity purification with mass spectrometry; streptavidin-agarose precipitation of biotinylated FOXC1 from nuclear extract of stable HEK293T cells (293T-Biotin-FOXC1); IP350 buffer (350 mM NaCl, 20 mM Tris-HCl pH 7.5, 0.5% NP40, 1 mM EDTA, 10% glycerin); SDS-PAGE, LC-ESI-MS/MS; proteins of the 293T-Biotin control deducted).

Amino acid sequences for entries named in this document (tags omitted). A change or cut given only in a name is not applied to a line headed by its entry.
UniProt O14646: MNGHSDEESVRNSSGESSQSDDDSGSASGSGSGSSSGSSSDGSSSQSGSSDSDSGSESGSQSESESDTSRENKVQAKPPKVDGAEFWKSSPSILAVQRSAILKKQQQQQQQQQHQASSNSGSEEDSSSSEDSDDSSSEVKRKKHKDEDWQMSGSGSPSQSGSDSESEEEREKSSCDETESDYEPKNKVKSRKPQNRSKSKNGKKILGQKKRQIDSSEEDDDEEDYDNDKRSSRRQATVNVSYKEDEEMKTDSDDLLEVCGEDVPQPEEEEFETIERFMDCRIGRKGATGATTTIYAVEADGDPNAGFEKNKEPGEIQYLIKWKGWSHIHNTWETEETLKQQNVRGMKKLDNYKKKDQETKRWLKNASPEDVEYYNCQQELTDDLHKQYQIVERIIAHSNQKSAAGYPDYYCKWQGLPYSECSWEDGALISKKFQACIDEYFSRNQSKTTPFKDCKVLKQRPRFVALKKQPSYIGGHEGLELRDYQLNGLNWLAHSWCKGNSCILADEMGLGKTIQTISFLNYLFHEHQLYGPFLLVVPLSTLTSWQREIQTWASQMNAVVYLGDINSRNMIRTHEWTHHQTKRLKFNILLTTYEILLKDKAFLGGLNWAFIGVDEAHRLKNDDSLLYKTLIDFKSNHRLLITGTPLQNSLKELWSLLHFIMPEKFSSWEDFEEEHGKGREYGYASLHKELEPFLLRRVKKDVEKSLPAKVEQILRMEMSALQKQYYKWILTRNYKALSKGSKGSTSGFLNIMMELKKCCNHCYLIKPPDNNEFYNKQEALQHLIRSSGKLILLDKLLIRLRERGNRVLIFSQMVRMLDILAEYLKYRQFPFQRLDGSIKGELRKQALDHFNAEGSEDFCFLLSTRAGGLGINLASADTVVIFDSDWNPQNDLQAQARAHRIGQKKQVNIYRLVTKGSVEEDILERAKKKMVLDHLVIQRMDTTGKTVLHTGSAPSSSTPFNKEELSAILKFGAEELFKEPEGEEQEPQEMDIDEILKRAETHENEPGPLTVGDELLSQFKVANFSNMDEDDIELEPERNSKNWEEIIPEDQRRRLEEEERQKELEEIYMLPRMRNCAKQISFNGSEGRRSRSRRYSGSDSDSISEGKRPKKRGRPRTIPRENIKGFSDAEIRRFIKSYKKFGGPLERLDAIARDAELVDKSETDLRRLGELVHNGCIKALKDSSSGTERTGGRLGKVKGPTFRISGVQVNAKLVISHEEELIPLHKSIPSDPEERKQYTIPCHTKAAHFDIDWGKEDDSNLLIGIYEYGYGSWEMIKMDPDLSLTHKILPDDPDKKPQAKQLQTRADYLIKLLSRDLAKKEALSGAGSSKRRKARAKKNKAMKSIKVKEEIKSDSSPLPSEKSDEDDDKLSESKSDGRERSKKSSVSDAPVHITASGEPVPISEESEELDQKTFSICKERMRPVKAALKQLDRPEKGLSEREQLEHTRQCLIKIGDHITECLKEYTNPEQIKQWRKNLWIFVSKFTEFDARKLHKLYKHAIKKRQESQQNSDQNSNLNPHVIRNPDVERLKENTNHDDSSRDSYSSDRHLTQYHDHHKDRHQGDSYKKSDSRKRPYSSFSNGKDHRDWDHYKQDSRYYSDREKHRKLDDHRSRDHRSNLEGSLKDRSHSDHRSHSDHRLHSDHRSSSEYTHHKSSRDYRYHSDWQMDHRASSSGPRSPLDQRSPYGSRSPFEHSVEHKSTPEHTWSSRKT
UniProt Q14574: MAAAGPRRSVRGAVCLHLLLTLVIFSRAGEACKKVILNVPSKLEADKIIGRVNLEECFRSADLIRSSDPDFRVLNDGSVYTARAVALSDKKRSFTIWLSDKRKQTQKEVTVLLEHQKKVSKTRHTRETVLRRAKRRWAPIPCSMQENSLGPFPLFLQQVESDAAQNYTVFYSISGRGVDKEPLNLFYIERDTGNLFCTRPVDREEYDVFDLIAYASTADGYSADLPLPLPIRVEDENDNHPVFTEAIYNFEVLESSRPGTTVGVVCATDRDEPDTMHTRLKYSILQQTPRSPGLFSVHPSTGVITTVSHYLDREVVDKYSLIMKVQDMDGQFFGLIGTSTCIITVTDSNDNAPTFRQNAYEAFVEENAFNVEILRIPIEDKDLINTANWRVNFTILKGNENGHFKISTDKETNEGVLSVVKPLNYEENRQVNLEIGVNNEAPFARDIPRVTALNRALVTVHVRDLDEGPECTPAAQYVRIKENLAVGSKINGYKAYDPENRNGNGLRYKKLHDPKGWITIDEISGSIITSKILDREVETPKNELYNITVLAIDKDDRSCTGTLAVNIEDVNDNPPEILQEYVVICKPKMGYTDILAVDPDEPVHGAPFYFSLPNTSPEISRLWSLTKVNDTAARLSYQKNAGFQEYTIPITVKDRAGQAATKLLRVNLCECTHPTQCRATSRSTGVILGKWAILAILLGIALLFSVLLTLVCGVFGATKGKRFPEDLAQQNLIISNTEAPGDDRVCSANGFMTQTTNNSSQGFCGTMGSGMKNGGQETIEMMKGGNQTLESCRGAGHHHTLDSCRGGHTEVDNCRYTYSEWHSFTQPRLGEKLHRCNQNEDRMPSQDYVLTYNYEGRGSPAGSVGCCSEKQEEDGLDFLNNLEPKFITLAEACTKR
UniProt Q9HCM4: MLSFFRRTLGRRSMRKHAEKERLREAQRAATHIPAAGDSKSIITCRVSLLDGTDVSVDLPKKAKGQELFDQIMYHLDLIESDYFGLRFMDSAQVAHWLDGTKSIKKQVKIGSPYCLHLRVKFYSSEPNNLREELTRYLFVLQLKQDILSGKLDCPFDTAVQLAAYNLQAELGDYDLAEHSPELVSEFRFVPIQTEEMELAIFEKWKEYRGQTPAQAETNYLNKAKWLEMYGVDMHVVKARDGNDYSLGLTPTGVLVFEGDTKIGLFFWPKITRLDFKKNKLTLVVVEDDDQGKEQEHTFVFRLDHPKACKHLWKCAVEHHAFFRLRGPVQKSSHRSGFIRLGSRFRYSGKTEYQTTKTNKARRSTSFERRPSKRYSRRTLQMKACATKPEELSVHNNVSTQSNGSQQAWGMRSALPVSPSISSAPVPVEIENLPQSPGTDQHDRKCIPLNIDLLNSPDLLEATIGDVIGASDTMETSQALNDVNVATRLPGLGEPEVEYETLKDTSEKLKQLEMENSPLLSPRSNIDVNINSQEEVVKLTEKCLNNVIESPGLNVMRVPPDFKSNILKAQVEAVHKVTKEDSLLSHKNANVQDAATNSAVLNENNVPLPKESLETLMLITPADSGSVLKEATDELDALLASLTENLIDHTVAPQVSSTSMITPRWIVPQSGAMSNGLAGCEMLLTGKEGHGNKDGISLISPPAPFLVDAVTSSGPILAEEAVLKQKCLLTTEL
UniProt Q92769: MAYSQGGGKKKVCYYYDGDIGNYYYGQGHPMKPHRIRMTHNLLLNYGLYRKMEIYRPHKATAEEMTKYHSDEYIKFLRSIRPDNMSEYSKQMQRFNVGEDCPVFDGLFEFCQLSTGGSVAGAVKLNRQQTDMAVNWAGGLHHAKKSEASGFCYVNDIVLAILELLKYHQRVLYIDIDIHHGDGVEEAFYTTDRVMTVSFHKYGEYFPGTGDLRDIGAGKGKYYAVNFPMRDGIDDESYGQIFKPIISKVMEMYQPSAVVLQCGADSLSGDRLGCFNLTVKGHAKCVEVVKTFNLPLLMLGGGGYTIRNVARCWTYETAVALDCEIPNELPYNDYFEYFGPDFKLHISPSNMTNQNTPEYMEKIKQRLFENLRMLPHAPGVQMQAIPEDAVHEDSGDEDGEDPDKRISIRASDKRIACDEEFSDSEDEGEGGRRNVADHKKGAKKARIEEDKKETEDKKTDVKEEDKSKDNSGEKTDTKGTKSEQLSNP
UniProt P35908: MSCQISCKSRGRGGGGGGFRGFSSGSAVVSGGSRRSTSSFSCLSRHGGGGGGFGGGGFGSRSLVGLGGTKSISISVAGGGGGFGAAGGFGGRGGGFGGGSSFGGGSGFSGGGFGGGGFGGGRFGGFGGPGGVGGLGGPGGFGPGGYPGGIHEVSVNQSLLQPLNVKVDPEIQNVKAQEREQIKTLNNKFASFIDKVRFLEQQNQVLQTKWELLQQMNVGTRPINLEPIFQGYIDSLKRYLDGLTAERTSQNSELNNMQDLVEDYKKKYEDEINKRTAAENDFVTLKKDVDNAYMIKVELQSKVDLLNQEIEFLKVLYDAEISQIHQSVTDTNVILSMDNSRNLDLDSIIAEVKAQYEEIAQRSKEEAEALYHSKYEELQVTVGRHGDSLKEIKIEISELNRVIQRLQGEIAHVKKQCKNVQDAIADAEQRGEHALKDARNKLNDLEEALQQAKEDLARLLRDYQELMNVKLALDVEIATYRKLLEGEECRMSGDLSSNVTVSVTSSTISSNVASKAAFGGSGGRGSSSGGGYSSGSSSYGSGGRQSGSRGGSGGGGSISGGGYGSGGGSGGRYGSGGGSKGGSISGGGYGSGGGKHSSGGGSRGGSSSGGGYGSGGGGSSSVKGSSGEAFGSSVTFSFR
UniProt O75400: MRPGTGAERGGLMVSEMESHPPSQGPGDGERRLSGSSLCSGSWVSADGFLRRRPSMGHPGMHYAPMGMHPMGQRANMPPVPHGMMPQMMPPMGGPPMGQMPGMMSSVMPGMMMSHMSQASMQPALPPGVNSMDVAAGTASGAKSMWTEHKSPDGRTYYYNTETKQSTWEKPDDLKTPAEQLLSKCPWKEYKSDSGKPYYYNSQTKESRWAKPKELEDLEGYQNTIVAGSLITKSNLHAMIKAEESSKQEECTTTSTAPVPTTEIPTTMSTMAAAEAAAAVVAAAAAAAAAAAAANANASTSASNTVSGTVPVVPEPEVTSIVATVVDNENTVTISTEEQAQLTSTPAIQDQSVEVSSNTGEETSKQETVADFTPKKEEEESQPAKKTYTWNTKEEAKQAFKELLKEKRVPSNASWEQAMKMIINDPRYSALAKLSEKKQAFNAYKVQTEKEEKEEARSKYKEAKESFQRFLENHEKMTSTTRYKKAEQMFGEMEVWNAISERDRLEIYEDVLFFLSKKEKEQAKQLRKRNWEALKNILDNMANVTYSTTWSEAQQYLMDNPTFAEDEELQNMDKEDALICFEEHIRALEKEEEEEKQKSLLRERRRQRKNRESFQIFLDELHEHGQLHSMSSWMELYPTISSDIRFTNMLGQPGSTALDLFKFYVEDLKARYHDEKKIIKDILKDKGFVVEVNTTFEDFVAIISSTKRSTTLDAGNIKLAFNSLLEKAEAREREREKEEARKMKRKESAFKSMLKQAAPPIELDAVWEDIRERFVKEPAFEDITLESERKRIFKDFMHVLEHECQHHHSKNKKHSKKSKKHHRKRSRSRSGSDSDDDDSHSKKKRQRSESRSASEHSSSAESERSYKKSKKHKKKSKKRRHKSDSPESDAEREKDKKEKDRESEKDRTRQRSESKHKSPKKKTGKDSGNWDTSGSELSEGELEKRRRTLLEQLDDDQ
UniProt Q9NS91: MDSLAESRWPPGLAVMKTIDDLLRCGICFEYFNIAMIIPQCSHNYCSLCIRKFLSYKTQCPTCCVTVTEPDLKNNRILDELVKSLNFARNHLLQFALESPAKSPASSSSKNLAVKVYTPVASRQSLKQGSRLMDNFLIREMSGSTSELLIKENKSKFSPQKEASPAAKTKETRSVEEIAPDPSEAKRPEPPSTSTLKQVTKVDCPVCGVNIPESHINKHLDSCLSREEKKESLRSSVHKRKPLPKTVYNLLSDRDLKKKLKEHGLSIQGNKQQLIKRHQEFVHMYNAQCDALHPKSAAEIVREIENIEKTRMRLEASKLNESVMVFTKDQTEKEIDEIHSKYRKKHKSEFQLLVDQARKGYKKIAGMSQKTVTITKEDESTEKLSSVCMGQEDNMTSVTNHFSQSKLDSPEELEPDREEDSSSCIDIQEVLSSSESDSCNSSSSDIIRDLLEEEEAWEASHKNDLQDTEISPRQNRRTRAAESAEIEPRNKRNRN
UniProt O60216: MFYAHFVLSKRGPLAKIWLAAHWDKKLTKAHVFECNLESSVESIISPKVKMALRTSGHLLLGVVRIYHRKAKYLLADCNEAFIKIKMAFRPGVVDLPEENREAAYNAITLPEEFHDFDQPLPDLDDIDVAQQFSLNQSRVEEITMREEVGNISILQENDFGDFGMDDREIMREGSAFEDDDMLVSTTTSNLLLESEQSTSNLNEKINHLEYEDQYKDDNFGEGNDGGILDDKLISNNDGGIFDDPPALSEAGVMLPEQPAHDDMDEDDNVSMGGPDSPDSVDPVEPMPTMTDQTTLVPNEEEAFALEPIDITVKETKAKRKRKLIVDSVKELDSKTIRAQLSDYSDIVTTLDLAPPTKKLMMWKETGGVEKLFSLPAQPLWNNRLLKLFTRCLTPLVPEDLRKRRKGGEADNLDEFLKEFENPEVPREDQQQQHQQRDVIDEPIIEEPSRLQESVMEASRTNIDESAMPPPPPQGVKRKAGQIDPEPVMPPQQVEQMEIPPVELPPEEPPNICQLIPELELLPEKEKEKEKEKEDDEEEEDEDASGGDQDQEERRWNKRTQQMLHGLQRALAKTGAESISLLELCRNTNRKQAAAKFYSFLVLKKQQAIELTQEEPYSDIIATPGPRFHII

binding, binds:
Abcf1 (from UniProt Q8NE71 1-845)
Acacb (human (endogenous in HEK293T))
Actl6a (from UniProt O96019 1-429)
Aifm1 (from UniProt O95831)
Amot (from UniProt Q4VCS5 1-1084)
Arrb2 (from UniProt P32121 1-409)
Atp5a1 (from UniProt P25705 44-553)
Baz1a (from UniProt Q9NRL2 1-1556)
Baz2a (from UniProt Q9UIF9 1-1905)
Bms1 (from UniProt Q14692 1-1282)
Bop1 (from UniProt Q14137 1-746)
Brd9 (from UniProt Q9H8M2 1-597)
C1qbp (from UniProt Q07021 74-282)
Cad (from UniProt P27708 1-2225)
Cand1 (from UniProt Q86VP6 1-1230)
Cblb (from UniProt Q13191 1-982)
Cbx2 (from UniProt Q14781 1-532)
Cdk11b (from UniProt P21127 1-795)
Cecr5 (from UniProt Q9BXW7 24-423)
Chd1 (from UniProt O14646 1-1710)
Chd4 (from UniProt Q14839 1-1912)
Chd7 (from UniProt Q9P2D1 1-2997)
Chd8 (from UniProt Q9HCK8 1-2581)
Copa (from UniProt P53621 1-1224)
Copb1 (from UniProt P53618 1-953)
Csnk2a1 (from UniProt P68400 1-391)
Csnk2b (from UniProt P67870 1-215)
Ddx3x (from UniProt O00571 1-662)
Ddx5 (from UniProt P17844 1-614)
Ddx10 (from UniProt Q13206 1-875)
Ddx17 (from UniProt Q92841 1-729)
Dhx15 (from UniProt O43143 1-795)
Dnaja1 (from UniProt P31689 1-397)
Dnaja3 (human (endogenous in HEK293T))
Dpm1 (from UniProt O60762 1-260)
Dsc1 (from UniProt Q08554)
Dsc3 (from UniProt Q14574)
Dsg1a (human (endogenous in HEK293T))
Dsg2 (from UniProt Q14126 50-1118)
Dsp (from UniProt P15924 1-2871)
Eef1g (from UniProt P26641 1-437)
Eif1a (from UniProt P47813 1-144)
Eif5 (from UniProt P55010 1-431)
Ep300 (from UniProt Q09472 1-2414)
Epb4.1 (from UniProt P11171 1-864)
Epb4.1l2 (from UniProt O43491 1-1005)
Epb4.1l5 (from UniProt Q9HCM4 1-733)
Ercc3 (from UniProt P19447 1-782)
Ewsr1 (from UniProt Q01844 1-656)
Exoc2 (from UniProt Q96KP1 1-924)
Exoc3 (from UniProt O60645 1-745)
Exoc4 (from UniProt Q96A65 1-974)
Fanci (from UniProt Q9NVI1 1-1328)
Fastkd2 (human (endogenous in HEK293T))
Flna (from UniProt P21333 1-2647)
Fus (from UniProt P35637 1-526)
Gapdh (from UniProt P04406 1-335)
Gcn1l1 (from UniProt Q92616 1-2671)
Gfpt1 (from UniProt Q06210 1-699)
Hdac2 (from UniProt Q92769 1-488)
Heatr1 (from UniProt Q9H583 1-2144)
Hnrnph1 (from UniProt P31943 1-449)
Hnrnpk (from UniProt P61978 1-463)
Hsp90ab1 (from UniProt P08238 1-724)
Hspa5 (from UniProt P11021 19-654)
Hspa8 (from UniProt P11142 1-646)
Hspa9 (from UniProt P38646 47-679)
Hspd1 (from UniProt P10809 27-573)
Ilk (from UniProt Q13418 1-452)
Irak1 (from UniProt P51617 1-712)
Krt1 (from UniProt P04264 1-644)
Krt2 (from UniProt P35908 1-639)
Krt5 (from UniProt P13647 1-590)
Krt6a (from UniProt P02538 1-564)
Krt10 (from UniProt P13645 1-584)
Krt16 (from UniProt P08779 1-473)
Krt17 (from UniProt Q04695 1-432)
Lmnb1 (from UniProt P20700 1-586)
Lyar (from UniProt Q9NX58 1-379)
Map2k7 (from UniProt O14733 1-419)
Mki67 (from UniProt P46013 1-3256)
Mmtag2 (from UniProt Q9BU76 1-263)
Myh9 (from UniProt P35579 1-1960)
Ncln (from UniProt Q969V3 43-563)
Ndufaf4 (from UniProt Q9P032 1-175)
Nkap (from UniProt Q8N5F7 1-415)
Nop56 (from UniProt O00567 1-594)
Notch4 (from UniProt Q99466 24-2003)
Nsa2 (from UniProt O95478 1-260)
Nsf (from UniProt P46459 1-744)
Osbpl3 (from UniProt Q9H4L5 1-887)
Parp1 (from UniProt P09874 1-1014)
Pcbp1 (from UniProt Q15365 1-356)
Pik3r4 (from UniProt Q99570 1-1358)
Pold1 (from UniProt P28340 1-1107)
Pole (from UniProt Q07864 1-2286)
Polrmt (from UniProt O00411 42-1230)
Prkdc (from UniProt P78527 1-4128)
Prmt5 (from UniProt O14744 1-637)
Prpf4b (human (endogenous in HEK293T))
Prpf40a (from UniProt O75400 1-957)
Prss1 (from UniProt P07477)
Rad18 (from UniProt Q9NS91 1-495)
Rad21 (from UniProt O60216 1-631)
Rbbp4 (from UniProt Q09028 1-425)
Rfc3 (from UniProt P40938 1-356)
Rfc5 (from UniProt P40937 1-340)
